Assay results from publication PMC5434536.
No constants are given. Whether binding was seen depends on the method and setting. Binding seen in cells or lysates may run through a third protein. Some entries that bind do so weakly or less than the wild type.

Chains of the proteins cited; added tags and fusions are not shown.
UniProt Q9NXR8: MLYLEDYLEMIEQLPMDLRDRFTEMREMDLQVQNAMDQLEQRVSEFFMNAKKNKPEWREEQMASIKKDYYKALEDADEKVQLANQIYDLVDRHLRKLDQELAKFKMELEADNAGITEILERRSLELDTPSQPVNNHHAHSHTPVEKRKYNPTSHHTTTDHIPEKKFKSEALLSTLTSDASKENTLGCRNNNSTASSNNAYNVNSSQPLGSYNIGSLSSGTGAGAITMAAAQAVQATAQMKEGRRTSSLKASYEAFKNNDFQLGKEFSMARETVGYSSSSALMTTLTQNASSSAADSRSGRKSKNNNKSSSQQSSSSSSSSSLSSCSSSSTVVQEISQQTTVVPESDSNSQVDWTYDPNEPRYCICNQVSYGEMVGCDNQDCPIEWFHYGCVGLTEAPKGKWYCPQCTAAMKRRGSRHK
UniProt P10275: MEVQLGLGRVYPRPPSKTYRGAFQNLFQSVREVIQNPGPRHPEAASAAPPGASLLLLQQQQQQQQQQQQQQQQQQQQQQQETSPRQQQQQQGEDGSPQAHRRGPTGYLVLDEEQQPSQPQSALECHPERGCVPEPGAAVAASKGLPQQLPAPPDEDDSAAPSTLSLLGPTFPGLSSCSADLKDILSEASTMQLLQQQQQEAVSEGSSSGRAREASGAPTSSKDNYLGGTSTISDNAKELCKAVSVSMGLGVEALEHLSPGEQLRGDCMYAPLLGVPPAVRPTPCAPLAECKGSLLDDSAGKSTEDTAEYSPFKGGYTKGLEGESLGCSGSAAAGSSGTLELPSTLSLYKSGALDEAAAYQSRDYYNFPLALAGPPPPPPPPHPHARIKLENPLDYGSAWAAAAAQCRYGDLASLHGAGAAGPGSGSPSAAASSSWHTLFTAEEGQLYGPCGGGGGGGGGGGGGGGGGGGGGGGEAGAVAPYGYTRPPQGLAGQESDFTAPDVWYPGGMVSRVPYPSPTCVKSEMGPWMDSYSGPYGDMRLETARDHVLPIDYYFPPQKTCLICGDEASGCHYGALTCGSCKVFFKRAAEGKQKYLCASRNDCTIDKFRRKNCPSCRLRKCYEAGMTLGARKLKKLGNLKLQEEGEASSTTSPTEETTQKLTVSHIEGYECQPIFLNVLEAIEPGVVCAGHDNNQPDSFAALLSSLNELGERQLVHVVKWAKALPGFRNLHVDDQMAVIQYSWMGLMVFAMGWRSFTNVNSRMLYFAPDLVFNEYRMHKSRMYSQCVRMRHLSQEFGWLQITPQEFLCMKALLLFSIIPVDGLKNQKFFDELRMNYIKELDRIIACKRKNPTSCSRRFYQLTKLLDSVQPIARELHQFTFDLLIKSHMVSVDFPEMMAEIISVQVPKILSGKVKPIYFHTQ
UniProt Q92993: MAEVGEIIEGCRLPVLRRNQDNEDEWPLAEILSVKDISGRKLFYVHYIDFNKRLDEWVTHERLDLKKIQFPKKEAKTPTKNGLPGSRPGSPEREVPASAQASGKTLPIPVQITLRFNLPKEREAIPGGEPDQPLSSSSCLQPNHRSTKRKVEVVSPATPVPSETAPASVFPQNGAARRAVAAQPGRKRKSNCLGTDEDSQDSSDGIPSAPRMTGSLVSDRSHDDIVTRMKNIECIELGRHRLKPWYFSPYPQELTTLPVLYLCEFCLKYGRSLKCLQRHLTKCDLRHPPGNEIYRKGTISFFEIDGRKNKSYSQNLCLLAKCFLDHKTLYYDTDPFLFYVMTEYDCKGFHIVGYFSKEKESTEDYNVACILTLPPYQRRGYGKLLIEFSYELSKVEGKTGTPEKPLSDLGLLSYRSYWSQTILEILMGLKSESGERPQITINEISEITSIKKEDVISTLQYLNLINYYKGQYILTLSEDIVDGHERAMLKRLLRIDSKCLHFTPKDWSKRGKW

Tests used:
[1] = target: HA-tagged ING3 (full-length ING3 expression plasmid) (human) (UniProt Q9NXR8); assay: co-IP; HEK293T co-transfected with AR and HA-tagged ING3 constructs, whole lysate; ING3 constructs precipitated with HA-affinity beads; +/- 10 nM MB; also with ethidium bromide in the IP buffer; blots for AR and endogenous TIP60
[2] = target: Myc-tagged androgen receptor (pCMV-3myc-AR) (UniProt P10275); assay: co-IP; cells co-transfected with AR, TIP60 and increasing amounts of ING3 plasmid + 10 nM MB for 24 h; AR or TIP60 immunoprecipitated with anti-AR or HA-affinity beads
[3] = target: HA-tagged ING3 (full-length ING3 expression plasmid) (human) (UniProt Q9NXR8); assay: co-IP; cytosolic fraction (REAP protocol) of HEK293T transfected with ING3-HA and AR, no MB; HA-bound beads pull down ING3
[4] = target: HA-tagged ING3 (full-length ING3 expression plasmid) (human) (UniProt Q9NXR8); assay: co-IP; nuclear fraction (REAP protocol) of HEK293T transfected with ING3-HA and AR, no MB; HA-bound beads pull down ING3
[5] = target: HA-tagged TIP60 (pCIN4-FLAG-HA-TIP60) (UniProt Q92993); assay: co-IP; cells co-transfected with AR, TIP60 and increasing amounts of ING3 plasmid + 10 nM MB for 24 h; AR or TIP60 immunoprecipitated with anti-AR or HA-affinity beads

Substance	binding [1]	binding [2]	binding [3]	binding [4]	binding [5]
TIP60, endogenous in HEK293T cells (from UniProt Q92993 1-513) (enzyme)	binds	–	–	–	–
HA-tagged TIP60 (pCIN4-FLAG-HA-TIP60) (from UniProt Q92993 1-513) (enzyme)	–	binds	–	–	–
Myc-tagged androgen receptor (pCMV-3myc-AR) (from UniProt P10275 1-920)	binds	–	binds	no binding (condition: in the nuclear fraction (no MB))	binds
